Data from PubChem BioAssay AID540276 (National Center for Advancing Translational Sciences (NCATS), 2011).
Hit rate of the full screen: of about 300,000 compounds, about 5,400 (1.8%) were called active. This list was built around the results that the source calls inconclusive (neither active nor inactive); the mix of calls is not that of the screen. Calls follow the shape of the full dose curve; tested in HEK293 cells. A potency beside an inconclusive call is a rough fit, not a confirmed value.
% is scaled to controls: 0 for no effect and ±100 for the full control effect; potency is read from the fitted curve at half-maximal effect.

Test: qHTS for inhibitors of binding or entry into cells for Marburg Virus
Details: Marburg virus pseudotyped entry inhibition, cell reporter; activity change, negative = inhibition: at 37.8 µM (top of the series) unless noted
In the case of `COc1ccccc1CNC(=O)CN1C(=O)NC2(CCCCCC2)C1=O`, the Potency is reported as inconclusive: 0.891 µM [inhibitor, full curve, poor fit]. With `Cc1ccc(NC(=O)c2cc(C)on2)cc1` the Potency was inconclusive: 0.651 µM [activator, single point]. For `CN(CC(=O)Nc1ccccc1Br)C(=O)c1ccncc1`, the Potency was inconclusive: 0.501 µM [inhibitor, single point]. In the case of `COc1ccc2cc(C(=O)NCc3ccccc3)[nH]c2c1`, the Potency is reported as inconclusive: 0.891 µM [activator, full curve, poor fit]. For `CC(=O)c1c(C)[nH]c(C(=O)OCC(=O)Nc2cc(C(F)(F)F)ccc2N2CCOCC2)c1C`, the Potency was inconclusive: 11.2 µM [inhibitor, partial curve, poor fit]. In the case of `O=C(COC(=O)c1ccccc1C(=O)c1ccc(Cl)c([N+](=O)[O-])c1)NC1CC1`, the Potency is reported as inconclusive: 1.41 µM [inhibitor, full curve, poor fit]. For `O=C1N=C(N2CCC(Cc3ccccc3)CC2)S/C1=C/c1cn[nH]c1-c1ccccc1`, the Potency was active: 10.3 µM. In the case of `O=C(Nc1ccc(N2CCOCC2)cc1)c1ccc(S(=O)(=O)N2CCCCC2)cc1`, the “activity change, negative = inhibition” value is reported as inactive: -1.11%. In the case of `O=C(Nc1nc2ccccc2s1)Nc1ccc(F)cc1F`, the Potency is reported as inconclusive: 1.26 µM [activator, partial curve, poor fit]. With `Cc1ccc(-n2c(=S)[nH]c3[nH]ncc3c2=O)cc1` the “activity change, negative = inhibition” value was inactive: 1.4%. In the case of `CN1CCN(c2nc(-c3cccs3)cc(C(F)(F)F)n2)CC1`, the Potency is reported as inconclusive: 18.3 µM [inhibitor, single point]. In the case of `CC(=O)CC(C)(C)NC(C)=S`, the “activity change, negative = inhibition” value is reported as inactive: -15.8%. With `CCc1ccccc1NC(=O)CN(C)C(=O)Cn1cnc2ccc(Cl)cc2c1=O` the “activity change, negative = inhibition” value was inactive: 1.21%. In the case of `Cc1cc(OCc2nc(-c3ccc(NC(=O)c4cccnc4)cc3)no2)ccc1Cl`, the Potency is reported as inconclusive: 14.6 µM [inhibitor, partial curve, poor fit]. For `Cc1cc(C=C2C(=O)c3ccccc3C2=O)c(C)n1-c1ccc(Cl)cc1`, the “activity change, negative = inhibition” value was inactive: -1.26%. For `CCC(C)n1c(O)c(/C=N/Nc2ccccc2)c(=O)[nH]c1=S` (centres undefined), the “activity change, negative = inhibition” value was inactive: 4.36%. For `O=c1/c(=C\c2ccc(F)cc2)sc2n1CCCN=2`, the “activity change, negative = inhibition” value was inactive: -4.33% [at 46.1 µM]. For `Cc1cccc(-c2cc(C(=O)Nc3cccnc3)c3ccccc3n2)c1`, the “activity change, negative = inhibition” value was inactive: -25.1%. In the case of `Cc1nc(SC(C)C(=O)NCC2CCCO2)c2cc(-c3ccccc3)sc2n1` (centres undefined), the Potency is reported as active: 0.631 µM. For `Cc1cccc(-c2noc(-c3cccnc3NCc3ccccc3Cl)n2)c1`, the “activity change, negative = inhibition” value was inactive: 17.1% [at 46.1 µM]. In the case of `CN(C)CCCNc1oc(-c2ccc(Cl)cc2)nc1C#N`, the “activity change, negative = inhibition” value is reported as inactive: -3.28%. In the case of `Cn1c(=O)c(=O)n(C)c2cc(S(=O)(=O)N3CCN(C4CCCCC4)CC3)ccc21`, the “activity change, negative = inhibition” value is reported as inactive: 2.86%. In the case of `CCNC(=S)N1CCN(CC(=O)Nc2ccc(OC)cc2)CC1`, the “activity change, negative = inhibition” value is reported as inactive: -5.98% [at 46.1 µM]. In the case of `CCCCn1c(-c2ccc(Cl)cc2)nc2c(=O)n(C)c(=O)[nH]c21`, the Potency is reported as inconclusive: 3.16 µM [inhibitor, single point]. In the case of `CC(=O)N1CCN(CC(=O)Nc2cc([N+](=O)[O-])ccc2Cl)CC1`, the “activity change, negative = inhibition” value is reported as inactive: 5.17% [at 46.1 µM]. For `NC(=NCCc1ccccc1)NS(=O)(=O)c1ccc(F)cc1`, the Potency was inconclusive: 0.562 µM [activator, single point]. In the case of `O=C(Nc1ccc(Oc2ccc(C(F)(F)F)cn2)c(Cl)c1)C1CC1`, the Potency is reported as inconclusive: 35.5 µM [inhibitor, single point]. For `CSc1cccc(NC(=S)N(Cc2ccccc2)Cc2ccccn2)c1`, the Potency was inconclusive: 20 µM [inhibitor, single point]. In the case of `Cc1ccc(NC(=O)NC(=O)c2cnccc2C(F)(F)F)c(C)c1`, the Potency is reported as inconclusive: 0.562 µM [activator, full curve, poor fit]. For `CCSC1=C(C#N)C2(CCCC2)C(C#N)=C(N)N1`, the Potency was inconclusive: 0.398 µM [inhibitor, full curve, poor fit]. In the case of `COc1ccccc1C(=O)Nc1ccnn1C1CCN(C(=O)c2ccoc2)CC1`, the “activity change, negative = inhibition” value is reported as inactive: 22.2%. With `Cc1cc(C)c(C2C(C#N)=C(N)Oc3n[nH]c(C)c32)cc1CN1CCOCC1` (centres undefined) the “activity change, negative = inhibition” value was inactive: 6.65%. For `C=C1N(c2ccccc2)C(=O)OC1(C)C`, the Potency was inconclusive: 1.41 µM [activator, partial curve]. With `CSc1ccc(/C=N/N2CCN(C)CC2)cc1` the Potency was inconclusive: 4.47 µM [activator, full curve]. For `O=C1C=C(Nc2ccc(Cl)cc2)CC(c2ccccc2)C1` (centres undefined), the Potency was inconclusive: 3.98 µM [inhibitor, full curve, poor fit]. In the case of `COc1ccccc1Nc1nc(-c2c(C)nc3ncccn23)cs1`, the Potency is reported as inconclusive: 12.6 µM [inhibitor, partial curve, poor fit]. With `Nc1nc(=S)n(-c2ccccc2)[nH]1` the “activity change, negative = inhibition” value was inactive: 1.39% [at 46.1 µM]. For `CSc1nc2ncc(C#N)cn2n1`, the “activity change, negative = inhibition” value was inactive: 1.92% [at 46.1 µM]. For `COc1ccc(S(=O)(=O)N(Cc2nc(-c3ccccc3)no2)C2CCCCC2)cc1`, the “activity change, negative = inhibition” value was inactive: 11.8% [at 46.1 µM]. In the case of `COc1ccc(S(=O)(=O)CCC(=O)NCCc2cccc(C)c2)cc1`, the “activity change, negative = inhibition” value is reported as inactive: 20.7%. In the case of `CN(C)S(=O)(=O)c1ccc(SCC(=O)N2CC(=O)Nc3ccccc32)nc1`, the “activity change, negative = inhibition” value is reported as inactive: 0.122%. With `C/C(=N/NC(=O)Cc1ccccc1)c1ccc(C)s1` the Potency was inconclusive: 1.26 µM [inhibitor, partial curve, poor fit]. In the case of `CCOC(=O)c1cnc2c(C)cccc2c1NCCCN1CCOCC1`, the Potency is reported as inconclusive: 11.2 µM [inhibitor, partial curve, poor fit]. For `O=c1n(Cc2ccccc2)nc2n1-c1ccccc1OC2`, the Potency was inconclusive: 3.55 µM [activator, full curve, poor fit]. In the case of `O=C(C1CCCN(S(=O)(=O)c2ccc(Br)cc2)C1)N1CCN(Cc2ccccc2)CC1` (centres undefined), the Potency is reported as inconclusive: 35.5 µM [inhibitor, partial curve, poor fit]. With `COCCNC(=S)N/N=C(\C)c1ccccc1F` the “activity change, negative = inhibition” value was inactive: 0.614% [at 46.1 µM]. In the case of `O=C(c1ccccc1-c1ccccc1)N1CCOCC1`, the Potency is reported as inconclusive: 28.2 µM [activator, partial curve, poor fit]. For `C=CCn1c(N)c(C(=O)NCCC2=CCCCC2)sc1=S`, the Potency was inconclusive: 0.259 µM [inhibitor, partial curve, poor fit]. For `CCOc1ccc(NS(=O)(=O)c2ccc3[nH]cc(C(=O)N4CCCC4)c(=O)c3c2)cc1`, the “activity change, negative = inhibition” value was inactive: -6.74% [at 46.1 µM].
